These are yes or no findings as the source states them, for the method shown. Where a sequence is shown, tags or fusion partners need not be part of it.
Target: intracellular domain of IA-2 fused to thioredoxin (TrxIA-2ic) (human) (UniProt Q16849)
Assay: condition: only with 8 M urea and 100 mM dithiothreitol; western blot after reduction with dithiothreitol; TrxIA-2ic under denaturing and reducing conditions (8 M urea and 100 mM dithiothreitol); western blot with rabbit polyclonal serum to IA-2ic; both purified

- binding: no binding
B1: intracellular domain of IA-2 fused to thioredoxin (TrxIA-2ic) (domain or fragment, human, UniProt Q16849 604-979, looked up)
chain: ARQQDKERLAALGPEGAHGDTTFEYQDLCRQHMATKSLFNRAEGPPEPSRVSSVSSQFSDAAQASPSSHSSTPSWCEEPAQANMDISTGHMILAYMEDHLRNRDRLAKEWQALCAYQAEPNTCATAQGEGNIKKNRHPDFLPYDHARIKLKVESSPSRSDYINASPIIEHDPRMPAYIATQGPLSHTIADFWQMVWESGCTVIVMLTPLVEDGVKQCDRYWPDEGASLYHVYEVNLVSEHIWCEDFLVRSFYLKNVQTQETRTLTQFHFLSWPAEGTPASTRPLLDFRRKVNKCYRGRSCPIIVHCSDGAGRTGTYILIDMVLNRMAKGVKEIDIAATLEHVRDQRPGLVRSKDQFEFALTAVAEEVNAILKALPQ
notes: insulinoma associated protein tyrosine phosphatase 2 (IA-2), human, intracellular domain IA-2ic, residues 604 to 979 of the 979-residue protein; codon-optimised synthetic gene adapted from GenBank L18983.1; Thioredoxin was not removed; also called thioredoxin-fused insulinoma associated protein tyrosine phosphatase 2; not shown: thioredoxin (E. coli), N-terminal, kept
